Laboratory results from PMC7672062.
No constants are given. Whether binding was seen depends on the method and setting. Binding seen in cells or lysates may run through a third protein. Some entries that bind do so weakly or less than the wild type.

The chains behind the UniProt entries cited, without tags or fusion partners.
UniProt Q8WUY9: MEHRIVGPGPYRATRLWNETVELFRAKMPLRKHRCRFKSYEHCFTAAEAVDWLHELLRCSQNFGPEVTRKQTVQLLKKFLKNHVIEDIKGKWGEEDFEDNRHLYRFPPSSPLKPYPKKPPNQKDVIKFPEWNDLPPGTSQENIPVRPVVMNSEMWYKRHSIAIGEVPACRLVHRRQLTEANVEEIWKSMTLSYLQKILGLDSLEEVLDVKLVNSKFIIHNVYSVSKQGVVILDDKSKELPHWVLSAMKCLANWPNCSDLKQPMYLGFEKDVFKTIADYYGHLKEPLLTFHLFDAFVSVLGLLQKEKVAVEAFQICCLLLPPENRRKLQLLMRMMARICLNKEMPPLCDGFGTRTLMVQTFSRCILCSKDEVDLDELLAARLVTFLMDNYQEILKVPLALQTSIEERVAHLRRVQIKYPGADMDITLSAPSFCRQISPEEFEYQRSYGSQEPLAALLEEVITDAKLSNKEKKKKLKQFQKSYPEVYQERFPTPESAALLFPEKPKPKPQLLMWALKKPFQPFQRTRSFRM

Target: DEP domain protein 1B (DEPDC1B) (UniProt Q8WUY9)
Assay: co-IP; precipitated with DEPDC1B antibody, SHC1 detected in the precipitate; cells and conditions not stated

binding: binds
B1: SHC1 (Src homology 2 domain containing transforming protein 1) (protein, UniProt P29353 1-583)
chain: MDLLPPKPKYNPLRNESLSSLEEGASGSTPPEELPSPSASSLGPILPPLPGDDSPTTLCSFFPRMSNLRLANPAGGRPGSKGEPGRAADDGEGIVGAAMPDSGPLPLLQDMNKLSGGGGRRTRVEGGQLGGEEWTRHGSFVNKPTRGWLHPNDKVMGPGVSYLVRYMGCVEVLQSMRALDFNTRTQVTREAISLVCEAVPGAKGATRRRKPCSRPLSSILGRSNLKFAGMPITLTVSTSSLNLMAADCKQIIANHHMQSISFASGGDPDTAEYVAYVAKDPVNQRACHILECPEGLAQDVISTIGQAFELRFKQYLRNPPKLVTPHDRMAGFDGSAWDEEEEEPPDHQYYNDFPGKEPPLGGVVDMRLREGAAPGAARPTAPNAQTPSHLGATLPVGQPVGGDPEVRKQMPPPPPCPGRELFDDPSYVNVQNLDKARQAVGGAGPPNPAINGSAPRDLFDMKPFEDALRVPPPPQSVSMAEQLRGEPWFHGKLSRREAEALLQLNGDFLVRESTTTPGQYVLTGLQSGQPKHLLLVDPEGVVRTKDHRFESVSHLISYHMDNHLPIISAGSELCLQQPVERKL
